Measured values as given in article PMC10763294.
No constants are given. Whether binding was seen depends on the method and setting. In cells and extracts the contact can be indirect. Some binding calls cover weakened binding; strength is not graded here.

The chains behind the UniProt entries cited, without tags or fusion partners.
UniProt Q8N9U0: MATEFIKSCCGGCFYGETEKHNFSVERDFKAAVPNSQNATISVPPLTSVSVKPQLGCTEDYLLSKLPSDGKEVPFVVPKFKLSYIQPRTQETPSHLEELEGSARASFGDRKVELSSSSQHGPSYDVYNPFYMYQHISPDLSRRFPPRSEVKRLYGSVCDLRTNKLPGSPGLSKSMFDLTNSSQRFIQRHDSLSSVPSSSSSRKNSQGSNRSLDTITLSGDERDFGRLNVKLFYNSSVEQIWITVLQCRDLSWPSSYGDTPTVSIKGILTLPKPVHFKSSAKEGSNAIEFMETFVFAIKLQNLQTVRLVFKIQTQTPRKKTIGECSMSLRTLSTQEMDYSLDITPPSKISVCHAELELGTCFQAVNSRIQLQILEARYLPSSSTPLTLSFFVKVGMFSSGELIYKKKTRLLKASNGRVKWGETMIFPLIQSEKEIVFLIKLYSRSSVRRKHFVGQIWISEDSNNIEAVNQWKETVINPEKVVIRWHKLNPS

Molecular target: FLAG-TC2N (tandem C2 domains, nuclear), full-length (human) (UniProt Q8N9U0)
Assay: co-IP; extracts of TC2N-overexpressing BC cells, IP with anti-Flag antibody and protein A/G agarose beads, 16 h at 4 °C, WB; high glucose condition; normal IgG as negative control

B1: IPO5 (protein, UniProt O00410 1-1097)
chain: MAAAAAEQQQFYLLLGNLLSPDNVVRKQAEETYENIPGQSKITFLLQAIRNTTAAEEARQMAAVLLRRLLSSAFDEVYPALPSDVQTAIKSELLMIIQMETQSSMRKKVCDIAAELARNLIDEDGNNQWPEGLKFLFDSVSSQNVGLREAALHIFWNFPGIFGNQQQHYLDVIKRMLVQCMQDQEHPSIRTLSARATAAFILANEHNVALFKHFADLLPGFLQAVNDSCYQNDDSVLKSLVEIADTVPKYLRPHLEATLQLSLKLCGDTSLNNMQRQLALEVIVTLSETAAAMLRKHTNIVAQTIPQMLAMMVDLEEDEDWANADELEDDDFDSNAVAGESALDRMACGLGGKLVLPMIKEHIMQMLQNPDWKYRHAGLMALSAIGEGCHQQMEGILNEIVNFVLLFLQDPHPRVRYAACNAVGQMATDFAPGFQKKFHEKVIAALLQTMEDQGNQRVQAHAAAALINFTEDCPKSLLIPYLDNLVKHLHSIMVLKLQELIQKGTKLVLEQVVTSIASVADTAEEKFVPYYDLFMPSLKHIVENAVQKELRLLRGKTIECISLIGLAVGKEKFMQDASDVMQLLLKTQTDFNDMEDDDPQISYMISAWARMCKILGKEFQQYLPVVMGPLMKTASIKPEVALLDTQDMENMSDDDGWEFVNLGDQQSFGIKTAGLEEKSTACQMLVCYAKELKEGFVEYTEQVVKLMVPLLKFYFHDGVRVAAAESMPLLLECARVRGPEYLTQMWHFMCDALIKAIGTEPDSDVLSEIMHSFAKCIEVMGDGCLNNEHFEELGGILKAKLEEHFKNQELRQVKRQDEDYDEQVEESLQDEDDNDVYILTKVSDILHSIFSSYKEKVLPWFEQLLPLIVNLICPHRPWPDRQWGLCIFDDVIEHCSPASFKYAEYFLRPMLQYVCDNSPEVRQAAAYGLGVMAQYGGDNYRPFCTEALPLLVRVIQSADSKTKENVNATENCISAVGKIMKFKPDCVNVEEVLPHWLSWLPLHEDKEEAVQTFNYLCDLIESNHPIVLGPNNTNLPKIFSIIAEGEMHEAIKHEDPCAKRLANVVRQVQTSGGLWTECIAQLSPEQQAAIQELLNSA
  binding: binds
